For data set [1], the target named is MqsA (UniProt Q46864). Kind of data set: EMSA. As to conditions: 10 mM Tris-HCl pH 7.5, 50 mM KCl, 1 mM DTT, 1 ug poly(dI.dC), 30-50 fmol labeled probe, ambient temperature, 1 h, 6% gel, 0.5x TBE, recombinant protein, protein details: His6 tag removed by TEV cleavage.
The target in data set [2] is MqsA (UniProt Q46864). Kind of data set: competition with a labelled probe. The note with it: excess unlabeled p-csgD reverses binding to labeled p-csgD; 10 mM Tris-HCl pH 7.5, 50 mM KCl, 1 mM DTT, 1 ug poly(dI.dC), 30-50 fmol labeled probe, ambient temperature, 1 h; 6% gel, 0.5x TBE; recombinant protein; protein details: His6 tag removed by TEV cleavage; probe letters rebuilt from the primers and the genome.

From paper PMC4894380 come the findings set out here.

For at least one entry, the source does not settle the construct or the ends of the probe. For part of these data: Weaker means in comparison with the reference protein, sequence or condition of that experiment.

As for “ATGTATGACCATGAATACTATGGACTTCATTAAACATGATGAAACCCCGCTTTTTTTATTGATCGCACACCTGACAGCTGCCTCTAAAATAGAAGCACCAGAAGTACTGACAGATGTTGCACTGCTGTGTGTAGTAATAAATCAGCCCTAAATGGGTAAAATATAAAACTAATGGATTACATCTGATTTCAATCTAGCCATTACAAATCTTAAATCAAGTGTTAAACATGTAACTAAATGTAACTCGTTATATTAAAATGTTAACCTTAAGGTTTTATTAAGTTTAGAAATGATAGAAAAGTTGTACATTTG (double strand) [p-csgD (312 bp)]”, in the data set with MqsA [1] (200-fold excess MqsA, label: 3' biotin, probe letters rebuilt from the primers and the genome), the binding result is “binds”.

As to “ATGTATGACCATGAATACTATGGACTTCATTAAACATGATGAAACCCCGCTTTTTTTATTGATCGCACACCTGACAGCTGCCTCTAAAATAGAAGCACCAGAAGTACTGACAGATGTTGCACTGCTGTGTGTAGTAATAAATCAGCCCTAAATGGGTAAAATATAAAACTAATGGATTACATCTGATTTCAATCTAGCCATTACAAATCTTAAATCAAGTGTTAAACATGTAACTAAATGTAACTCGTTATATTAAAATGTTAACCTTAAGGTTTTATTAAGTTTAGAAATGATAGAAAAGTTGTACATTTG (double strand) [p-csgD unlabeled (312 bp)]”, in the data set with MqsA [2], the binding result was “binds”.

Regarding “ACTTAATAAAACCTTATCACCAACATTTTA (double strand) [p-csgD mutated palindrome 30-mer]”, the binding result with MqsA [1] (50-, 100- and 200-fold excess MqsA, binding drastically reduced, label: 3' biotin on both strands) was “binds more weakly”.
